Taken from: PubChem BioAssay AID1259308 (NCATS, 2017)
Shown is a random part of about 59,000 reagents tested. About 1,510 of them (2.6%) were called active. 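Calls use total luciferase alone and ignore viability, so some active siRNAs may act by altering cell number.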 A number with no mark means an inactive call. Reagents against one gene are numbered here. Further read-outs or replicates are left out here. Reagent sequences are not shown.

- Assay: 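Candidate targets for better recombinant protein yield in mammalian cells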 (primary screen)
- Cells: human HEK293 embryonic kidney cells stably expressing firefly luciferase (HEK-CMV-Luc2-Hygro)
- Reagent: single siRNA against human genes, 0.8 pmol siRNA per well
- Timing: 72 h
- Detection: 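Luciferase light (ONE-Glo) measured on one replicate plate set and viability (CellTiter-Glo) on the other, scaled to a negative control siRNA, with robust z-scores and luciferase per cell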
- Scale: total luciferase, z-score: higher = more reporter protein produced
- Call rule: 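An siRNA counts as active if its total luciferase robust z-score exceeds 3; genes with two or more such siRNAs out of three were retested with fresh siRNAs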
- Calls: active = raised luciferase; inactive = no rise

RBKS #1 scored total luciferase, z-score -0.297. Against RBKS #2, the entry reads total luciferase, z-score -0.286. For RBKS #3 the deposit lists total luciferase, z-score 0.0268. CLPS #1 scored total luciferase, z-score 0.37. For CLPS #2, the entry reads total luciferase, z-score -1.57. CLPS #3 scored total luciferase, z-score -0.229.

Against SETD7 #1, the entry reads total luciferase, z-score 0.459. Against SETD7 #2, the values are total luciferase, z-score 0.54. SETD7 #3 showed total luciferase, z-score 0.14. CABCOCO1 #1 scored total luciferase, z-score 0.949. Against CABCOCO1 #2, the values are total luciferase, z-score 1.28. CABCOCO1 #3 scored total luciferase, z-score 0.244.
